Measurements: PubChem BioAssay AID493014 (National Center for Advancing Translational Sciences (NCATS), 2011)
The campaign covered roughly 340,000 compounds. About 170 (0.05%) were called active. The shares of active, inactive and inconclusive entries below differ from those in the screen. Calls follow the shape of the dose curve; as a rule, active = well fitted inhibition curve with a large enough effect in the signal ratio, with a control signal flat (not every such curve was filed as active); inconclusive = small, poorly fitted or top-dose-only effect, or effect the other way, or a change in a side signal; inactive = flat fitted curve, though single readings scatter; the % refers to the signal ratio. A potency beside an inconclusive call is a rough fit, not a confirmed value.

Test: qHTS Assay to Find Inhibitors of Chronic Active B-Cell Receptor Signaling;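 as to activity change, negative = inhibition: plate controls were basal doxycycline-induced cells for no effect and cells given 10 µM MG132 for full effect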
Conditions: ABC-DLBCL IkBa-CBG/CBR reporter, luminescence ratio (green luciferase fused to IkBa over red control in TMD8 lymphoma cells), 4 h; activity change, negative = inhibition: at 46.1 µM (top of the series)
Summary of the method: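 Doxycycline induced both beetle luciferases in TMD8 lymphoma cells; IKK-driven degradation limits the IkappaBalpha-fused green signal, while red luminescence normalises for cell number and nonspecific effects. Compounds tested up to 46 uM, 4 hrs.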
Potency is read from the fitted curve at half-maximal effect.

SMILES	Potency	activity change, negative = inhibition
CCOc1cc(/C=N/Nc2nc(N3CCCC3)nc(N3CCCC3)n2)ccc1O	inconclusive: 16.4 µM [rising, partial curve, poor fit]	–
Cc1cccc(C(=O)NCC(=O)OCC(=O)N2CCCCC2)c1	–	inconclusive: 7.04%
Cc1ccc(-c2cccc(CN3CCN(C(C)C)C(CCO)C3)c2)o1 (configuration not stated)	inconclusive: 28.2 µM [rising, partial curve, poor fit]	–
CCN(CC)S(=O)(=O)c1cccc(C(=O)NCC(c2ccccc2)N(C)C)c1 (configuration not stated)	–	inactive: 4.53%
COc1ccc(NC(=O)CN(C)C(=O)c2cn(-c3ccccc3)nc2-c2cccnc2)cc1	–	inactive: 5.67%
Nc1c(C(=O)NCc2ccc(F)cc2)c2nc3ccccc3nc2n1CCCN1CCOCC1	–	inconclusive: 13.6%
Cc1ccc(S(=O)(=O)Nc2nc3ccccc3s2)cc1	inconclusive: 4.11 µM [rising, full curve, poor fit]	–
Cc1cnc(NC(=O)C(C)N2CCN(C)CC2)s1 (configuration not stated)	–	inactive: 2.52%
CC(C)(C)c1ccc(C(=O)N2CCN(C(=O)c3ccco3)CC2)cc1	–	inactive: 2.76%
C/C(=N\Nc1nc(C(C)(C)C)cs1)c1ccccc1	inconclusive: 31.6 µM [falling, single point]	–
CC/C=C/C(=O)N1CC2(CC(c3cccc(NC(=O)c4ccccc4)c3)=NO2)C[C@@H]1C(N)=O (some centres not stated)	inconclusive: 35.5 µM [falling, single point]	–
COCCN1CN(S(=O)(=O)c2ccccc2)c2nc3ccccc3nc21	inconclusive: 14.6 µM [rising, partial curve, poor fit]	–
NC(=O)c1ccsc1NC(=O)c1coc2ccccc2c1=O	–	inconclusive: 2.07%
CCOC(=O)C1CCN(Cc2c(O)ccc3ccccc23)CC1	–	inconclusive: 7.73%
CCSCc1nc(N)nc(NCCc2ccccc2)n1	–	inconclusive: -27.1%
NC(=O)C1CC(=O)N(c2ccc(OCc3ccc(Cl)cc3Cl)cc2)C1 (configuration not stated)	–	inconclusive: 11.8%
CCOC(=O)CC1=CC(C)(CC(=O)OCC)C(C#N)(C#N)C(N)=C1C#N (configuration not stated)	inconclusive: 23.1 µM [falling, partial curve]	–
COC(=O)Nc1nc(-c2ccccc2)c(C(=O)c2ccc(Cl)cc2)s1	–	inconclusive: -29.7%
O=c1[nH]c(=O)c2nnc(N/N=C\c3ccc(O)cc3)nc2[nH]1	inconclusive: 35.5 µM [falling, single point]	–
CCOc1ccccc1N1CCN(C(=O)c2c(Cl)cnn2C)CC1	–	inactive: -0.124%
CCCN1C(=O)c2ccc(C(=O)Nc3nccs3)cc2C1=O	inconclusive: 8.2 µM [rising, partial curve, poor fit]	–
CCc1cccc(NC(=O)CCCSc2nc3ccccc3[nH]2)c1	–	inconclusive: -3.91%
COc1ccc(C(=O)Nc2ccc(C(=O)OCC(=O)c3cccc4ccccc34)cc2)cc1	–	inconclusive: -4.3%
O=C(/C=C/c1ccccc1)Nc1cc(S(=O)(=O)N2CCOCC2)ccc1N1CCCC1	–	inconclusive: 0.0754%
Cc1cccc(NC(=S)Nc2ccc(Br)cc2)c1	–	inconclusive: 7.88%
COc1ccc2oc(=O)c(-c3csc(Nc4cccc(O)c4)n3)cc2c1	–	inconclusive: -0.159%

2 records picked at random from those above:
SMILES	Potency	activity change, negative = inhibition
Cc1ccc(S(=O)(=O)Nc2nc3ccccc3s2)cc1	inconclusive: 4.11 µM [rising, full curve, poor fit]	–
NC(=O)c1ccsc1NC(=O)c1coc2ccccc2c1=O	–	inconclusive: 2.07%

Continued:

SMILES	Potency	activity change, negative = inhibition
COc1cc(C2C(C#N)=C(N)N(Nc3ccccc3)C3=C2C(=O)CC(C)(C)C3)ccc1OCc1cccc(F)c1 (configuration not stated)	–	inconclusive: 7.12%
O=C(NNc1ccc([N+](=O)[O-])cc1)C1C2CCCCC21 (configuration not stated)	–	inconclusive: 8.36%
CC(C)n1nccc1NC(=O)COC(=O)c1ccc(NC(N)=O)cc1	–	inconclusive: -0.342%
CN(C)S(=O)(=O)c1ccc2c(c1)Cc1cc(S(=O)(=O)N(C)C)ccc1-2	–	inactive: -8.04%
COc1ccc(S(=O)(=O)Nc2nnc(C(C)C)s2)cc1	–	inconclusive: -2.11%
CC1CCCCN1C(=O)Cn1c(=O)oc2cc(S(=O)(=O)N3CCCC3)ccc21 (configuration not stated)	–	inconclusive: -8.86%
O=C(NC(=O)c1ccccc1)NC(=O)c1ccccc1	inconclusive: 0.366 µM [rising, full curve, poor fit]	–
COc1ccc(C(=O)Nc2cccc3ccccc23)cc1	inconclusive: 25.1 µM [falling, single point]	–
C/C(=N/NC(=O)CNC(=O)c1ccncc1)c1ccc(Cl)cc1	–	inconclusive: 12.7%
CC1(C)COC(c2ccc(F)c([N+](=O)[O-])c2)=N1	–	inconclusive: 5.78%
CC(C)OC(=O)/C(C#N)=C/c1cn(Cc2ccccc2)c2ccccc12	–	inconclusive: 12.1%
COc1ccc(/C=C(\C#N)C(=O)Nc2ccccn2)cc1	–	inconclusive: 5.53%
O=C(CCn1nc(-c2ccccc2)ccc1=O)N1CCCC1	–	inconclusive: 13%
O=C(Nc1ccc2oc(-c3cccc(F)c3)nc2c1)c1ccccc1F	inconclusive: 1.3 µM [rising, full curve, poor fit]	–
CCN(CC(=O)Nc1ccc2c(c1)OCCO2)Cc1cc(=O)n2ccsc2n1	inconclusive: 35.5 µM [falling, single point]	–
COc1cc2c(cc1OC)C1O[C@](CCCCN3C(=O)c4ccccc4C3=O)(C2)OC2=C1C(=O)CCC2	inconclusive: 3.16 µM [rising, partial curve]	–
COCCNC(=O)/C(C#N)=C/c1c(F)cccc1Cl	–	inactive: 11.1%
COc1ccc(C(=O)NCC(c2ccc3c(c2)OCO3)N2CCOCC2)cc1 (configuration not stated)	–	inactive: -0.643%
COc1ccc(S(=O)(=O)N2CCOC23CCN(S(C)(=O)=O)CC3)cc1	–	inactive: 8.23%
Cc1ccc(CN2C(=O)c3ccccc3Sc3ccc(C(=O)NCc4ccco4)cc32)cc1	–	inactive: 4.1%
O=C1CC(c2cccc(Cl)c2)CC(O)=C1C=Nc1ccccc1 (configuration not stated)	–	inconclusive: 12.6%
CNCc1ccccc1Sc1ccc(O)c(O)c1	–	inconclusive: 12.7%
O=C(Cn1cnc2c(OCc3ccccc3)ncnc21)NCc1ccccc1	–	inactive: 0.625%
CSc1nncn1/N=C/c1ccc([N+](=O)[O-])cc1	–	inconclusive: 4.38%
Cc1nc(C)c(-c2csc(Nc3ccc(O)c(C(=O)O)c3)n2)s1	–	inconclusive: -16.9%
Cc1cc(C)nc(Nc2nc(-c3ccccc3)cs2)n1	inconclusive: 2.82 µM [falling, full curve, poor fit]	–

Compounds listed so far containing a tert-butyl group (two):
SMILES	Potency	activity change, negative = inhibition
CC(C)(C)c1ccc(C(=O)N2CCN(C(=O)c3ccco3)CC2)cc1	–	inactive: 2.76%
C/C(=N\Nc1nc(C(C)(C)C)cs1)c1ccccc1	inconclusive: 31.6 µM [falling, single point]	–
